# According to the RNAGym collection of RNA variant scans (doi:10.1126/science.aae0568):
# This sample is rich in variants without activity.
# B1: tRNA (parent)
# chain: GUUCCGUUGGCGUAAUGGUAACGCGUCUCCCUCCUAAGGAGAAGACUGCGGGUUCGAGUCCCGUACGGAACG
# Variants of: B1
# Experiment: yeast fitness relative to wild type (ratio to wild type); higher = fitter; tRNA-Arg(CCU), competitive growth, 37 C, YPD
# Summary of the method: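 Gene amplicons from the start population and from each of six end populations were read by 100-nucleotide paired-end sequencing. Those end populations came from pooled Saccharomyces cerevisiae strains carrying tRNA-Arg(CCU) gene variants at the native locus, competed in YPD at 37°C for 24 hours. Fitness relative to wild type was worked out from changes in genotype frequencies. Genotypes needed ≥ 100 starting reads, and estimates < 0.5 were set to 0.5.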
row,Variant,yeast fitness
1,G44A C60U C62A,≤ 0.5
2,G44A U54C G56C,≤ 0.5
3,G44A U64G,0.694
4,G44C A45U C66A,≤ 0.5
5,G44C A57C G68C,≤ 0.5
6,G44C A65G A70C,0.682
7,G44C C46G C55U G67C,≤ 0.5
8,G44C C49G A57C,≤ 0.5
9,G44C C61G A65C A70C,≤ 0.5
10,G44C G56C A69U,≤ 0.5
11,A45C C49G G58C,≤ 0.5
12,A45C U54A C55A,≤ 0.5
13,A45C U59G,0.713
14,A45G A57U C60U,≤ 0.5
15,A45G G67A,0.961
16,A45U A65C G68A,0.567
17,A45U C49A G52C G56A A69G,≤ 0.5
18,A45U G68A,0.926
19,A45U U54C C55G,≤ 0.5
20,A45U U59C,0.897
21,C46A C49A C61A,≤ 0.5
22,C46A C49A G63A,≤ 0.5
23,C46A G67C,0.896
24,C46A U47G G50A,0.544

row,Variant,yeast fitness
1,C46G C49A U54C G58C,≤ 0.5
2,C46G C62A,0.873
3,C46G C62G C66G,≤ 0.5
4,C46G G51A G56C A57C,≤ 0.5
5,C46G G56C G68U,≤ 0.5
6,C46U C60U A65C,0.589
7,C46U C61U,0.956
8,C46U G51C C62U,≤ 0.5
9,C46U U54C G56A,0.642
10,U47A C55G C66G,0.639
11,U47A C61U A70C,0.558
12,U47A G50A,0.831
13,U47C U53C,0.795
14,U47G C49G C60G A70U,≤ 0.5
15,U47G C61U A69C,≤ 0.5
16,G48A C60G G63A,≤ 0.5
17,G48A G50A U54A,0.597
18,G48A U53C C60A C61U,≤ 0.5
19,G48A U59C G63A,≤ 0.5
20,G48C U59G,0.722
21,C49A C60G A70C,≤ 0.5
22,C49A G63C A69G,≤ 0.5
23,C49G C60U,0.692
24,C49G U53C,0.723

row,Variant,yeast fitness
1,C49U A69U,1.01
2,C49U C55A,0.557
3,C49U G51A A69U,0.573
4,C49U G56A G67A,0.593
5,C49U G58A A65G,1
6,C49U G63C,0.703
7,C49U U53A C66A,≤ 0.5
8,C49U U54G C55G G67A A70G,≤ 0.5
9,G50A C55G G67A,≤ 0.5
10,G50A G63C,0.737
11,G50A U59A,0.831
12,G50C C55A,0.619
13,G50C G56A G67A,≤ 0.5
14,G50C U59G C62U G68A,≤ 0.5
15,G51A C55U A65C,≤ 0.5
16,G51C U53A A65U,≤ 0.5
17,G51C U54A,≤ 0.5
18,G51C U54A A69U,≤ 0.5
19,G52A A57C A69U,0.565
20,G52A G63A A69C,≤ 0.5
21,G52C U54A C61U,≤ 0.5
22,G52U A65G,0.793
23,U53C C55U,≤ 0.5
24,U54A C62U G68A,0.504

row,Variant,yeast fitness
1,U54C C60G,0.539
2,C55A A57C C60G,≤ 0.5
3,C55A G67A A70G,≤ 0.5
4,C55A G68C,0.674
5,C55G A65G C66G A70G,≤ 0.5
6,C55G C60A A69C,≤ 0.5
7,C55G U59A G63A C66U,≤ 0.5
8,C55U C61A A70U,≤ 0.5
9,C55U G67C G68A,≤ 0.5
10,G56A G63A,0.726
11,G56C A69U A70C,≤ 0.5
12,G56C A70U,0.83
13,G56C C60A C62G,≤ 0.5
14,G56C C60G,≤ 0.5
15,G56U A65G,0.615
16,G56U G63A A65G,≤ 0.5
17,A57C C61A A70G,≤ 0.5
18,A57C C62U,0.565
19,A57C G63A A70C,≤ 0.5
20,A57C G63A G67A,≤ 0.5
21,A57U C66U G68C A69U,≤ 0.5
22,A57U G63A A70U,≤ 0.5
23,A57U U64A,0.678
24,G58C G63A,0.873

row,Variant,yeast fitness
1,U59A C60G,0.655
2,U59A C66A,0.63
3,U59A G68A,0.791
4,U59A U64A A70C,≤ 0.5
5,U59A U64G A65C,≤ 0.5
6,U59C C61U,0.839
7,C60U C61A G67C,≤ 0.5
8,C61A C62U A65U A69C,0.52
9,C61A G67A,0.582
10,C61G C66U A69U,≤ 0.5
11,C61U G63C,0.565
12,G63A A70U,0.816
13,G63C G67C A69U,≤ 0.5
14,G63C U64A C66G,≤ 0.5
15,G63C U64C,0.969
16,U64A G68U,0.728
17,U64C A69C,0.983
18,U64C A70C,0.967
19,U64C G68A,0.979
20,U64G C66A,≤ 0.5
21,A65U C66U A70G,≤ 0.5
